Pks13 thioesterase: 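Enzyme assay of the thioesterase domain of polyketide synthase 13; the read-out is not stated. Target: Polyketide synthase Pks13, Mycobacterium tuberculosis (UniProt I6X8D2). Concentration: 30 µM. The record gives no direction; the compounds picked for IC50 retests had high values, so higher reads as stronger inhibition. Of about 67,000 compounds tested this way, about 300 (0.46%) reached 50% or more in at least one test.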
LiHisRS: 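Enzyme assay of histidyl-tRNA synthetase; the read-out is not stated. Target: Histidine-tRNA ligase, Leishmania infantum (UniProt A4I591). Concentration: 30 µM. The record gives no direction; compounds that gave an IC50 in retests scored well above the rest, so higher reads as stronger inhibition. The assay is labelled LdHisRS but filed under L. infantum. Size under these conditions: about 69,000 compounds, about 410 of them at 50% or above in at least one test.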
CoaBC: 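Coenzyme A biosynthesis protein CoaBC, Mycobacterium tuberculosis (UniProt P9WNZ1). Enzyme assay of CoaBC with a phosphate dye (Biomol Green) read at 650 nm. Compounds at 30 µM. Higher reads as stronger inhibition, judged from the few compounds that gave an IC50. Most strong results did not repeat in a second test. Of about 67,000 compounds tested this way, about 40 (0.06%) reached 50% or more in at least one test.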

Protein sequences, listed by entry. Tags and fused reporters are not part of them. Residues count along the entry.
UniProt I6X8D2, whole entry: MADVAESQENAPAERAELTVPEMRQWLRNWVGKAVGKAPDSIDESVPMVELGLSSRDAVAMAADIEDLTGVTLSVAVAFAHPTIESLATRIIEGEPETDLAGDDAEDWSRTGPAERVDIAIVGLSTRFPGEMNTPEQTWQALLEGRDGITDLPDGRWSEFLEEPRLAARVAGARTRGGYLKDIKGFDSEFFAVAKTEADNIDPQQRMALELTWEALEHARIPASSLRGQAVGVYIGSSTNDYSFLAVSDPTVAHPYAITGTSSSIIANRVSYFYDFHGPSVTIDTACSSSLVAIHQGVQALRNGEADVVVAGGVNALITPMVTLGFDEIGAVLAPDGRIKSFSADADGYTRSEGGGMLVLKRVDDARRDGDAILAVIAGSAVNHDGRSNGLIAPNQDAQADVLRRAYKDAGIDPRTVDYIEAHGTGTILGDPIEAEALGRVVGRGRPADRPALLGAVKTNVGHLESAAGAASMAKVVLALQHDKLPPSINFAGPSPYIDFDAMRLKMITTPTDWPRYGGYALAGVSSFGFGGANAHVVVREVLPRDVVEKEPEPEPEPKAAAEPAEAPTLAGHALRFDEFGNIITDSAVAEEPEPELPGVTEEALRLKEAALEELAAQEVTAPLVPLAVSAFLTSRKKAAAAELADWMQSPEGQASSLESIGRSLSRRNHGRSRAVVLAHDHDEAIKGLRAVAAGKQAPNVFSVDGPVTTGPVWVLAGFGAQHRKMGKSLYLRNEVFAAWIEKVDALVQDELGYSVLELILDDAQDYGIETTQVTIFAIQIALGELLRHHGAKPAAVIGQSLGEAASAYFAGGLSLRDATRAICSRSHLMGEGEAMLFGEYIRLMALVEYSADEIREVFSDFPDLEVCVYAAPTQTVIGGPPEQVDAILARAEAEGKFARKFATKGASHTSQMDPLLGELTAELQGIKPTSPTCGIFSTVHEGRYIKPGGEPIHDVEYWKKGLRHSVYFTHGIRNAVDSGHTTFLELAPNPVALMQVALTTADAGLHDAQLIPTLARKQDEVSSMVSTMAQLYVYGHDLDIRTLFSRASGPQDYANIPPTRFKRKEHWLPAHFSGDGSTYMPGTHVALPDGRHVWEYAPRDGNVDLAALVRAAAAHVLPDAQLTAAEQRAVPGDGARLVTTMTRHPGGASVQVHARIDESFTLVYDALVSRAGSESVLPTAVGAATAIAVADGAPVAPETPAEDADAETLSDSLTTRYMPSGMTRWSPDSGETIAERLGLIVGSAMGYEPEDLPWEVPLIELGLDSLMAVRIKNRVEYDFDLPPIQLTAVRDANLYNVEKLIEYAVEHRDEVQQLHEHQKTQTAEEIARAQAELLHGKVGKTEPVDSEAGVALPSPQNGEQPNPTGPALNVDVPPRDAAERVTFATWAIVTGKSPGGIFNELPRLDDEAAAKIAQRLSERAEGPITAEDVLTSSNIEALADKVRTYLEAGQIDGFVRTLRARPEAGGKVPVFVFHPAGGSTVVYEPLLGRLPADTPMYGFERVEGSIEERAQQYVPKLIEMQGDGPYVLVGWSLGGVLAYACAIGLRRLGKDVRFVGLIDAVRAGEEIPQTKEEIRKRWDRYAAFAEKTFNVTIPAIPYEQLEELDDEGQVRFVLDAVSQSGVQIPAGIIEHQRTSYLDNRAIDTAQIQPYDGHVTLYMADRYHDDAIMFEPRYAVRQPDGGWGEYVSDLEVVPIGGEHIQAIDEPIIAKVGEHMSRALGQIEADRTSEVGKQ
UniProt A4I591, 1-473: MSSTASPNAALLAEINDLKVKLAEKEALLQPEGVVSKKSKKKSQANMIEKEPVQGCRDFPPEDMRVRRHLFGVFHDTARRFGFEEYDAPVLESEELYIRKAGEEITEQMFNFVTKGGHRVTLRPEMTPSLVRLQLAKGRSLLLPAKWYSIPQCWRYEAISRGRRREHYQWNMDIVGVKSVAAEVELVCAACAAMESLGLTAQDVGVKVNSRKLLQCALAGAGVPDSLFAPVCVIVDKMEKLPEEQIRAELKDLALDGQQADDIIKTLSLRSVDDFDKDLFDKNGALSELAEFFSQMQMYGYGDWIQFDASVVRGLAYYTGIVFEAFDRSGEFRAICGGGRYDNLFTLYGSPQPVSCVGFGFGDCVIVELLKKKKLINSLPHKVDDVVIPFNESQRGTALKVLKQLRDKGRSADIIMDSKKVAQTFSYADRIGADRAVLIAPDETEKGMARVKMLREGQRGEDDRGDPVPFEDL
UniProt P9WNZ1, whole entry: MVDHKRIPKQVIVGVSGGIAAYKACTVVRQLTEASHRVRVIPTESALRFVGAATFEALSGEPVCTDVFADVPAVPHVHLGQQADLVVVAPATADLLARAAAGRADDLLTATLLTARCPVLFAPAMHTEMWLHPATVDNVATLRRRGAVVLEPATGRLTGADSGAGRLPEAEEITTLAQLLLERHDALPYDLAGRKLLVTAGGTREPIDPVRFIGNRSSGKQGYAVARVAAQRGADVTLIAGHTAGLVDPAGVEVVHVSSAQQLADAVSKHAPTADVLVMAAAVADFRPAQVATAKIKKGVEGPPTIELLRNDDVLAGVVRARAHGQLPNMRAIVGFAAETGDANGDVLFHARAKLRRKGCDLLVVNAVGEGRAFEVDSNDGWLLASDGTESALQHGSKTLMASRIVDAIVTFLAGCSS

Values are the deposited “Percent Effect”, in %. The controls that fix the scale are not given in the record; negative values are as filed. Compounds were drawn at random from those tested, without regard to their results. Two or more numbers in one place are separate tests of the same structure; such repeats can differ widely. A dash means the value is not listed here; it may have been measured.

| compound | Pks13 thioesterase | LiHisRS | CoaBC |
|---|---|---|---|
| `Cc1cccc(OCc2nnc(SCC3CCCN(C)C3)o2)c1` (centres unmarked) | 5.586 | -2.632 | -30.84 |
| `Brc1cccc(C2(CNCc3cc[nH]c3)CCOCC2)c1` | -20.4 | 40.85 | - |
| `O=C(c1ccc2c(c1)OCO2)N1C[C@H](OCC2CC2)[C@H]2COC[C@H]21` | -35.67 | -3.419 | - |
| `COCC1c2c(cnn2C)CCN1C(=O)c1cscn1` (centres unmarked) | -13.31 | 11.71 | -0.9901 |
| `N#CCc1ccc(NC(=O)N[C@H](CO)Cc2ccc(O)cc2)cc1` | 6.603 | -1.961 | 1.84 |
| `CCS(=O)(=O)N1CCOC2(CCCN(c3ncc(F)cn3)C2)C1` (centres unmarked) | -19.04 | 16 | -3.074 |
| `CC(C)OCCN1CCN(c2ccc(Cl)cn2)CC1` | -18.72 | 13.92 | 1.394 |
| `CN(Cc1cnn(C)c1)C(=O)NCC1CCS(=O)(=O)C1` (centres unmarked) | -2.264 | 8.642 | 1.531 |
| `Cc1cc(Cl)ccc1NCc1ccc(C(=O)N(C)C)[nH]1` | -12.45 | 15.32 | 5.058 |
| `CCNC(=O)C1CCCN(C(=O)Nc2ccc3c(c2)CCCN3C)C1` (centres unmarked) | -28.72 | 19.17 | - |
| `O=C(Nc1cccnc1N1CCSCC1)c1ccc2c(c1)CCC2` | -18.51 | 31.33 | 19.42 |
| `CCc1nc(C(=O)N2CCCC2)nn1-c1c(Cl)cccc1Cl` | -8.86 | 11.4 | 1.956 |
| `O=C(CO)N1CCCC(N2CCN(c3ccccc3F)CC2)C1` (centres unmarked) | 3.366 | 21.98 | 0.6098 |
| `CC(C)c1nnc(CNCC2CCCN2c2cccnn2)o1` (centres unmarked) | -24.84 | 4.839 | 3.03 |
| `Cc1n[nH]c(=O)c2c(NC(=O)CN3CCCC(C(F)(F)F)C3)oc(C)c12` (centres unmarked) | -9.534 | -21.28 | 2.85 |
| `Cc1cc(C(F)(F)F)nn1CC(C)C(=O)NC(C)C` (centres unmarked) | -14.77 | 5.172 | -8.314 |
| `CCC(NC(=O)C1CCN(S(=O)(=O)N(C)C)CC1)c1ccc(C)c(C)c1` (centres unmarked) | 4.323 | -0.9434 | -1.364 |
| `CC(C)(CNC(=O)NCCOc1cccc(F)c1)C(N)=O` | -1.674 | 18.4 | -2.66 |
| `Cn1cc(C2CCCN2CCc2nc3ccccc3c(=O)[nH]2)cn1` (centres unmarked) | -6.392 | 7.143 | -2.045 |
| `CN(C)S(=O)(=O)c1ccc2c(c1)N(Cc1nccn1C)CCC2` | -10.67 | 18.92 | -5.058 |
| `CC(=O)Nc1ccc(OCc2noc(C(=O)N3CCCCC3)n2)cc1` | -6.904 | 14.29 | -3.133 |
| `Cc1ccc(-c2nc(CN3CCn4c(nnc4C4CC4)C3)no2)cc1` | -15.28 | 6.349 | 3.566 |
| `CCc1noc(C(C)N2CCN(c3ccc(C#N)cn3)CC2)n1` (centres unmarked) | -19.32 | 8.571 | 10.12 |
| `CCn1cc(CN(C)c2nc(C)c3ccc(S(C)(=O)=O)cc3n2)cn1` | -37.7 | 19.17 | - |
| `Cc1cc(NC(=O)NCc2ccccc2OC(F)F)n(C)n1` | -4.612 | 13.51 | 4.178 |
| `CC(C)CC(=O)N1CCN(C(=O)N(C)C)CC2(CC(=O)N(C)C2)C1` (centres unmarked) | -5.183 | 3.846 | -3.934 |
| `CC(C#N)CSc1ccccc1NCC(=O)NCc1cccs1` (centres unmarked) | - | 4.11 | 0.3205 |
| `COc1ccc(-c2noc(CN3CCN(c4cnccn4)CC3)n2)cc1` | 2.666 | 14.63 | -0.6361 |
| `O=C1NCCO[C@H]2CN(C(=O)CCc3ccccc3Cl)CC[C@@H]12` | - | -4 | -8.402 |
| `COCCN(CCC#N)S(=O)(=O)c1cc(F)ccc1F` | -21.08 | 9.091 | 7.46 |
| `Oc1ccccc1N1CCN(c2ncnc3sc4c(c23)CCNC4)CC1` | 5.5 | 9.677 | -24.9 |
| `CC[S+](CC)[c-]1c(=O)[nH]c(=O)n(Cc2ccc(F)cc2)c1=O` | -6.48 | 6.25 | 5.984 |
| `CCn1ncc2[nH]c(-c3ccc(OC)c(COC)c3)nc21` | -10.45 | 8.197 | -5.861 |
| `CC(C)C(=O)NC1CC2(CCN(CC(=O)N(C)C)CC2)c2ccccc21` (centres unmarked) | -12.63 | 11.82 | 0.2469 |
| `NC(=O)c1ccc(C(=O)N(Cc2ccc(O)cc2)CC2CC2)cc1` | 9.171 | 9.244 | 1.138 |
| `COc1cc(C2(C(=O)NC3CCN(C4CC4)CC3)CC2)ccc1C` | -17.41 | 12.82 | -0.4202 |
| `CC(=O)NCc1cncc(C2CCCN2C2CCOCC2)n1` (centres unmarked) | 7.622 | 10.14 | -3.679 |
| `O=C(Nc1ccnn1Cc1ccccc1Cl)C1CCS(=O)(=O)C1` (centres unmarked) | 4.204 | 9.756 | 1.908 |
| `CN1CCN(c2nc(O)c3c(-c4ccccn4)ccnc3n2)CC1` | -77.45 | 5.714 | -2.294 |
| `Cc1ncsc1CN1C[C@@H]2COC[C@]2(C(=O)NCc2cccnc2)C1` | 5.49 | 23 | 2.596 |
| `Cc1ccc(CC(=O)N2CCCC(c3cc(C)[nH]n3)C2)cn1` (centres unmarked) | -15.37 | 6.154 | 2.024 |
| `COC[C@@H]1CC[C@H]2[C@H](CCN2S(=O)(=O)c2ccc(F)cc2)O1` | -7.582 | 11.76 | 4.505 |
| `N#Cc1c(Cl)nsc1NCc1cccnc1OCC(F)(F)F` | 18.36 | 19.75 | 5.25 |
| `Cc1nn(C)c(Cl)c1C1CCCN1C(=O)c1cc[nH]n1` (centres unmarked) | -1.545 | 19.05 | 1.779 |
| `Cc1ccc(CN(Cc2ccccn2)C(=O)CCC2CCCN(C)C2)s1` (centres unmarked) | -1.701 | 1.6 | -0.2439 |
| `COC(=O)C1CCN(C(=O)CN2CCN(c3cccc(C)c3)CC2)CC1` | -2.029 | 7.619 | 4.516 |
| `CCN(CC)C(=O)CNC(=O)N1CCC(c2ccc(OC)cc2)C1` (centres unmarked) | -3.251 | 12.24 | -2.755 |
| `Cc1ccc(CC(=O)N2CCCC(c3nccs3)C2)cn1` (centres unmarked) | -18.54 | 9.174 | 2.864 |
| `COc1ccccc1NC(=O)NCCCC(=O)Nc1cn[nH]c1` | -12.78 | 2.74 | -4.339 |
| `O=C(Nc1ccccc1)N1CCC2(CC(=O)N(c3ccsc3)C2)C1` (centres unmarked) | -18.11 | 21.1 | 6.353 |
| `Cc1nn(C2CCS(=O)(=O)C2)c(O)c1Cc1ccccc1` (centres unmarked) | -18.48 | 7.895 | 6.818 |
| `Cc1cccc(CN2CCC3(CCC(C(=O)N(C)C)O3)CC2)n1` (centres unmarked) | -26.83 | 15.38 | 2.96 |
| `Cc1noc(C(C)C)c1C(=O)NCC(c1ccsc1)N(C)C` (centres unmarked) | 3.689 | -25.84 | 2.828 |
| `Cc1cccc(N2CCN(c3ccn4c(=O)[nH]nc4n3)CC2)c1C` | -29.57 | 15.25 | -3.639 |
| `COc1ccc(F)cc1CSCC(=O)N(C)CCC#N` | -28.3 | 26.76 | 9.153 |
| `CCC(C)N1CCc2c(C(=O)N(C)Cc3ccccn3)nn(C)c2C1` (centres unmarked) | -19.1 | 6.838 | - |
| `CC(NC(=O)NC1CCN(CC2CCCC2)CC1)c1nccs1` (centres unmarked) | -29.32 | 13.33 | 0 |
| `CCC(C)NS(=O)(=O)c1ccc(C(=O)N(C)C2(C#N)CCC2)cc1` (centres unmarked) | 9.535 | 19.51 | 4.707 |
| `CC(Cn1ccnc1)NC(=O)C1(c2ccc(F)cc2)CCCC1` (centres unmarked) | -7.149 | 7.273 | 3.316 |
| `COCCNC(=O)[C@H]1C[C@@H]2CCN(c3ccccc3)C[C@H]2O1` | 1.605 | 13.89 | 8.763 and 20 |
| `CCOC1CCN(C(=O)NCCN(C)C(=O)OC(C)(C)C)CC1` | -27 | 8.621 | 8.779 |
| `Cc1cc(NC(=O)NC(C)(C)c2nc(C)c(C)s2)no1` | -13.73 | 10.42 | 4.327 |
| `O=C(c1cocn1)N1CCC2(CC1)COC(COCc1ccccn1)C2` (centres unmarked) | 9.879 | 11.84 | 3.271 |

From ChEMBL document CHEMBL3988442, “University of Dundee, Small-Polar-MMV Screening Library” (2021).